Results are given in words; binding and its absence hold for the method and conditions named. In cells and extracts the contact can be indirect. Binding calls can cover weak binding; strength is not graded here. Where a sequence is shown, tags or fusion partners need not be part of it. Values belong to the molecule of their own block, whether it stands above or below them.
Legend:
[1] = biological target: T1, GFP-Wg (Wingless tagged with GFP) (Drosophila melanogaster) (UniProt P09615); assay: co-IP; Extracts of S2 cells transfected with GFP-wg and sona. Lysis in HEPES buffer (20 mM HEPES, 70 mM KCl, 2 mM DTT, 0.1% NP40, 8% glycerol, 10 mM EDTA, 10 mM EGTA). Precleared lysates were incubated overnight at 4 °C with protein G-sepharose beads coupled to Sona-Pro or anti-GFP antibody. Detection by Western blot.
T1 sequence: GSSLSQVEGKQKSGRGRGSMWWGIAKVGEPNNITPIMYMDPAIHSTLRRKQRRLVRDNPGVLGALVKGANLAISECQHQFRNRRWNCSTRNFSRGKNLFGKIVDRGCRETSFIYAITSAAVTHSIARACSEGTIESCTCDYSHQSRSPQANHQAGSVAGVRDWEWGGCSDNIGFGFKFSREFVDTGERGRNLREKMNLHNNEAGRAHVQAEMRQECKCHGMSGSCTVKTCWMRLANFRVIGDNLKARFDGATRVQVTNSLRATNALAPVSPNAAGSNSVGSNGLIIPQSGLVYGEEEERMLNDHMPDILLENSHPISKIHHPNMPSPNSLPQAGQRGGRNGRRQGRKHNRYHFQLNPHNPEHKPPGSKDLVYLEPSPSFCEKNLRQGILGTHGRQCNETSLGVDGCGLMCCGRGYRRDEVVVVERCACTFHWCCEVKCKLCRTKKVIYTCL

[2] = biological target: Sol narae (Sona), Sona-PA form (Drosophila melanogaster); assay: as above

binding [1]: binds
Molecule: Sol narae (Sona), Sona-PA form (Drosophila melanogaster) (enzyme)

binding [2]: binds
B1: GFP-Wg (Wingless tagged with GFP) (ligand, UniProt P09615 18-468)
chain: T1 sequence
